From PubChem BioAssay AID2417 (National Center for Advancing Translational Sciences (NCATS), 2010)
The whole screen tested about 140,000 compounds, of which about 4,300 (3.1%) were called active. The shares of active, inactive and inconclusive entries below differ from those in the screen.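 The calls were made as follows: active = readout at or below -70, meaning at least 70% loss of cells showing the perinucleolar compartment, a nuclear body marking cancer cells; inconclusive = readout between -30 and a set limit; inactive = the rest.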

test: High Content Assay for Compounds that inhibit the Assembly of the Perinucleolar Compartment; conditions: PC3M PTB-GFP, PNC prevalence imaging, 16 h; at 10 µM; stronger effect = lower value;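 also: plate controls were DMSO wells for no effect and camptothecin positive control wells for full effect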
Outline: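 Compounds are pinned in duplicate onto adhered PC3M cells stably expressing GFP-tagged PTB and incubated 16 h at 37 C. Cells are then fixed, nuclei stained with Hoechst, and PNC-positive cells counted.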

| Compound | activity change (PNC), negative = inhibition |
| --- | --- |
| CN(C)CCN1C(=O)C(=O)/C(=C(/O)c2ccccc2)C1c1ccccc1F (stereo unspecified) | inconclusive: -36.3% |
| Cc1ccccc1Nc1nc2ccccc2s1 | inactive: 13.6% |
| Cc1ccc(N(CC(=O)NCc2ccncc2)S(C)(=O)=O)cc1Cl | active: -84.4% |
| CCc1cc[n+](C2=C([O-])c3ccccc3C(=O)/C2=N\S(=O)(=O)c2cccs2)cc1 | inconclusive: -63.7% |
| O=C1CCCC2=C1C1(CCCCC1)N=C(Nc1nc3ccccc3o1)N2 | inconclusive: -49.2% |
| S=P(c1ccc(N2CCOCC2)cc1N1CCOCC1)(N1CCOCC1)N1CCOCC1 | inconclusive: -41.6% |
| O=C(CSc1nc(O)cc(=O)[nH]1)C1CC1 | active: -123% |
| COCCNC(=O)CN(C(=O)CCC(=O)Nc1ccccn1)c1ccc(F)c(Cl)c1 | inactive: -23.9% |
| CCOC(=O)c1sc(NC(=O)CSc2ncn[nH]2)c(C#N)c1C | inactive: -11.1% |
| Cc1cccc(NC2=CC(=O)OC(C)C2)c1 (stereo unspecified) | inconclusive: -33.1% |
| O=C(CCN1C(=O)c2ccccc2C1=O)Nc1ccccn1 | active: -87.5% |
| COc1ccccc1C(=O)Nc1ccc(NC(=O)c2ccco2)c(C)c1 | inconclusive: -61.6% |
| COc1cc(OC)c(OC)cc1/C=N/Nc1ncnc2c1[nH]c1ccccc12 | inconclusive: -46.5% |
| COc1ccc(C(=O)Nc2ccc(N3CCN(c4ccc(OC)cc4)CC3)c(C#N)c2)cc1 | inconclusive: -65.5% |
| CCCCC(=O)Nc1cccc(NC(=S)NC(C)=O)c1 | inactive: -7.25% |
| CCc1nnc(NC(=O)CSc2nc(-c3ccccc3)cc(-c3ccc(OC)cc3)c2C#N)s1 | inactive: 32.7% |
| CN1CCc2c(sc3c2c(=O)n(-c2ccccc2)c2n[nH]c(=S)n32)C1 | inconclusive: -58.8% |
| CCOC(=O)C1=C(C)NC(=S)N(C(C)=O)C1c1ccccc1 (stereo unspecified) | inconclusive: -33.2% |
| COCCOC(=O)C1=C(N)OC2=C(C(=O)CC(C)(C)C2)C1c1cccnc1 (stereo unspecified) | inconclusive: -48.9% |

| Compound | activity change (PNC), negative = inhibition |
| --- | --- |
| COc1ccccc1N1CC(C(=O)Nc2cccc(C(=O)O)c2)CC1=O (stereo unspecified) | inactive: -8.99% |
| CCOc1ccc(CNC23CN4CN(CN(C4)C2)C3)cc1 | inactive: -10.8% |
| COCCn1c(SC)nnc1-c1c[nH]c2ccccc12 | inconclusive: -40.1% |
| N#Cc1cc(-c2ccccc2)nnc1Sc1ccccc1 | inconclusive: -57.2% |
| COCCN(C(=O)Cn1nnc2ccccc21)C(C(=O)NC1CCCC1)c1cc(OC)ccc1OC (stereo unspecified) | inconclusive: -59.3% |
| CC(C)C(C(=O)O)N1C(=O)/C(=C/C=C/c2ccco2)SC1=S (stereo unspecified) | inactive: -13.7% |
| COc1ccc(CCNC(=O)CN(C)S(=O)(=O)c2ccc(Br)s2)cc1OC | active: -82.6% |
| COc1cccc(/C=N/NC(=O)C(=O)NCc2cccnc2)c1O | inconclusive: -49.2% |
| COc1cccc(-n2c(CCn3nc(C)c([N+](=O)[O-])c3C)n[nH]c2=S)c1 | inconclusive: -56.9% |
| CN1c2ccccc2C(C)(C)C12CC(c1cccc(S(=O)(=O)N3CCCC3)c1)=NO2 (stereo unspecified) | active: -117% |
| CCn1c(SCC(=O)Nc2cccc(OC)c2)nnc1-c1ccc(Cl)cc1 | inconclusive: -61.4% |
| Cc1ccc(/C=C2/SC(=S)N(CCC(=O)N3CCN(c4ccccc4)CC3)C2=O)cc1 | inconclusive: -73% |
| CCN(CC)CCN(C)C1CCC(c2ccccc2)CC1 (stereo unspecified) | inconclusive: -51.4% |
| OCc1cn(-c2ccccc2)nc1-c1cccnc1 | inconclusive: -30.7% |
| CCS(=O)(=O)N1CCC(C(=O)NCc2ccc(F)cc2)CC1 | inconclusive: -49.1% |
| COc1ccc2[nH]c(C(=O)O)c(CCC(=O)O)c2c1 | inconclusive: -64.7% |
| O=C(NCc1cc(C(F)(F)F)cc(C(F)(F)F)c1)C12CN(Cc3ccccc3)CC1C(c1cccc([N+](=O)[O-])c1)=NO2 (stereo unspecified) | inconclusive: -48.3% |
| CCCc1nc(SCC(=O)Nc2nc3c(s2)CCCC3)c2ccccc2n1 | inactive: -2.53% |
| CC(=O)Oc1cccc(N2C(=O)C3CC=CCC3C2=O)c1 (stereo unspecified) | inconclusive: -31.7% |

Fetched one by one from the list above, three records:

| Compound | activity change (PNC), negative = inhibition |
| --- | --- |
| O=C1CCCC2=C1C1(CCCCC1)N=C(Nc1nc3ccccc3o1)N2 | inconclusive: -49.2% |
| Cc1cccc(NC2=CC(=O)OC(C)C2)c1 (stereo unspecified) | inconclusive: -33.1% |
| CC(=O)Oc1cccc(N2C(=O)C3CC=CCC3C2=O)c1 (stereo unspecified) | inconclusive: -31.7% |

(next part)

| Compound | activity change (PNC), negative = inhibition |
| --- | --- |
| O=C(CN1CCOc2ccccc21)NCc1cccs1 | inconclusive: -58.4% |
| COc1ccc(Cl)cc1NC(=O)CN1C(=O)CCS(=O)(=O)c2ccccc21 | active: -100% |
| O=C1COc2ccc(C(=O)COC(=O)C3CCN(S(=O)(=O)c4cccs4)CC3)cc2N1 | inconclusive: -46.9% |
| COc1cccc(-c2cc(C(=O)N3CCN(Cc4ccccc4)CC3)no2)c1 | inactive: -17.8% |
| Cc1ccc(C)c2[nH]c(=O)c(C(c3nnnn3Cc3ccccc3)N3CCc4ccccc4C3)cc12 (stereo unspecified) | inactive: -14.8% |
| CC1Cc2ccccc2N1C(=O)CSc1nnc2sc3ccccc3n12 (stereo unspecified) | inconclusive: -53.5% |
| O=C(COc1ccc(C(=O)c2ccccc2)cc1)NCc1ccc(F)cc1 | active: -81.4% |
| CCOC(=O)C1CCCN(C(=O)Cc2ccc(C)cc2)C1 (stereo unspecified) | inconclusive: -43.9% |
| Fc1ccc(C(c2nnnn2C2CCCC2)N2CCN(Cc3ccccc3)CC2)cc1 (stereo unspecified) | inactive: 2.64% |
| O=C(c1ccco1)N1CCN(C2=NS(=O)(=O)c3ccccc32)CC1 | inconclusive: -39.5% |
| O=C1CN(C(=O)c2ccc(Br)o2)C(c2ccc(F)cc2)c2cc(Cl)ccc2N1 (stereo unspecified) | inconclusive: -46.5% |
| O=C(Cn1c(C(=O)N2CCN(C3CCCC3)CC2)cc2sccc21)c1ccccc1 | active: -122% |
| Cc1cccc(Nc2nnc(SCC(=O)Nc3cccc(S(=O)(=O)N4CCCCC4)c3)s2)c1 | inactive: 13.3% |
| Cc1ccccc1NS(=O)(=O)c1cc(C(=O)NCc2ccco2)ccc1C | inconclusive: -45.4% |
| Cc1cc(C)c(NC(=O)c2ccc(CNS(=O)(=O)c3cc(C(F)(F)F)ccc3Cl)cc2)c(C)c1 | inconclusive: -35% |
| CCN1CCN(C(=O)c2cn(CCOC)c(=O)c3c2c2ccccc2n3C)CC1 | inconclusive: -32.2% |
| Cc1ccnc(NS(=O)(=O)c2ccc(NC(=O)Cc3ccccc3)cc2)n1 | inconclusive: -65% |
| Cc1ccccc1NCC(=O)N/N=C/C(Br)=C/c1ccccc1 | inconclusive: -62.9% |
